Measurements reported in PubChem BioAssay (NCATS).
Where “and” joins values, the source holds several entries; their conditions need not be identical. Equal entries are not always repeated. The inconclusive results got no clear call from the source; some entries with a clear call stand among them for comparison. For some assays here: Potencies beside an inconclusive call are fits to weak or partial responses and may not hold up. Calls of active or inactive are those of the source. Calls follow the shape of the dose curve; as a rule, active = well fitted curve in the direction sought with a large enough effect; inconclusive = small, poorly fitted or top-dose-only effect, or another doubt; inactive = no such curve, though single readings can be large; an effect the other way counts as inactive or inconclusive.

Key:
[1] = Identifying Small Molecule Inhibitors of Pancreatic Cancer Stem Cells (Panc1, Adherent) (AID 1259362); settings: Potency: viability unless noted; series mostly up to 46.1 µM
In short: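 Spheroids grown 14 days in stem cell media on hydrogel-coated nonadherent plates; 2D lines seeded directly. Compounds added after 4 h attachment, 48 h at 37C, 5% CO2; CellTiter-Glo luminescence normalized to DMSO (no inhibition) and no-cell wells (full inhibition).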

[2] = P-glycoprotein substrates identified in KB-8-5-11 adenocarcinoma cell line, qHTS therapeutic library screen (AID 1346987); settings: KB-8-5-11 (P-gp overexpressing) viability, CellTiter-Glo, 72 h; series mostly up to 44.5 µM; also: nearly all actives have a fitted effect of over 65% in size
In short: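 KB-8-5-11, a colchicine-selected P-gp-overexpressing KB-3-1 subline, was grown without colchicine for the assay. Cells were seeded at 500 cells/well, dosed in concentration-response and incubated 72 h at 37 degree C, 5% CO2. Viability was read by CellTiter-Glo luminescence.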

[3] = NS1 protein of Zika virus - qHTS assay to identify small molecule inhibitors in human HEK 293 cells (AID 1347053); settings: HEK293 ZIKV MR766 infection, NS1 TR-FRET, 24 h; series mostly up to 46.1 µM; also: nearly all actives have a fitted effect of over 55% in size
In short: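 Inhibition of NS1 expression was scored in HEK 293 cells given compound 1 h ahead of MR766 virus (MOI = 0.5). Following 24 h at 37 C, two anti-NS1 antibodies generated a TR-FRET signal, scaled between uninfected and infected controls.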

[4] = P-glycoprotein substrates identified in KB-3-1 adenocarcinoma cell line, qHTS therapeutic library screen (AID 1346986); settings: KB-3-1 parental cells viability, CellTiter-Glo, 72 h; series mostly up to 44.5 µM;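 also: potency is for cytotoxicity meaning loss of cell viability; nearly all actives have a fitted effect of over 60% in size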
In short: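 KB-3-1 parental and colchicine-selected P-gp-overexpressing KB-8-5-11 cells (colchicine omitted during assay), 500 cells/well, dosed in dose-response for 72 h at 37 °C; CellTiter-Glo luminescence. Cytotoxic: curve class -1.1 to -2.4, max response >50%, AC50 < 10 uM.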

[5] = qHTS of pediatric cancer cell lines to identify multiple opportunities for drug repurposing: Primary screen for TC32 cells (AID 1347089); settings: TC32 Ewing sarcoma viability, CellTiter-Glo luminescence, 48 h; series mostly up to 45.8 µM; also: nearly all actives have a fitted effect of over 60% in size
In short: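 A viability screen of TC32 cells was run over 48 h, with primary MIPE doses spanning 0.78 nM–46 µM and NPC doses 0.59 nM–46 µM. ATP luminescence (CellTiter-Glo) served as the read-out.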
Potency is read from the fitted curve at half-maximal effect.

Row | SMILES | Potency [1] | Potency [2] | Potency [3] | Potency [4] | Potency [5]
1 | CC=C1NC(=O)[C@H]2CSSCCC=C[C@H](CC(=O)N[C@H](C(C)C)C(=O)N2)OC(=O)[C@H](C(C)C)NC1=O | inconclusive: 6.62 µM [cytotoxic, partial curve, poor fit] | active: 8.33 µM | active: 4.18 µM | – | –
2 | CCc1cncnc1N1CCN(Cc2nc3ccc(C(F)(F)F)cc3[nH]2)CC1 | inconclusive: 14.8 µM [cytotoxic, partial curve, poor fit] | inconclusive: 9.35 µM [inhibitor, partial curve] and inconclusive: 10.3 µM [inhibitor, partial curve] | inconclusive: 0.132 µM [inhibitor, single point] | – | –
3 | Nc1cccc(S(=O)(=O)N2CCCN(S(=O)(=O)c3ccc4c(c3)OCCO4)CC2)c1 | inactive | inconclusive: 20.9 µM [inhibitor, partial curve, poor fit] | inconclusive: 33.2 µM [inhibitor, single point] | – | –
4 | CNC(=O)c1cc(Oc2ccc(NC(=O)Nc3ccc(Cl)c(C(F)(F)F)c3)cc2)ccn1 | inconclusive: 18.7 µM [cytotoxic, partial curve, poor fit] | active: 11.8 µM and active: 8.2 µM and active: 6.51 µM | inconclusive: 37.2 µM [inhibitor, single point] | – | –
5 | COc1cc(Nc2c(C#N)cnc3cc(OCCCN4CCN(C)CC4)c(OC)cc23)c(Cl)cc1Cl | inconclusive: 14.8 µM [cytotoxic, partial curve] | inconclusive: 23.1 µM [inhibitor, partial curve, poor fit] | inconclusive: 35.5 µM [inhibitor, single point] and inconclusive: 29.6 µM [inhibitor, single point] | active: 18.4 µM | inconclusive: 16.5 µM [cytotoxic, partial curve, poor fit]
